For two substances, binding results are on record in paper PMC6394608.

By UniProt entry, the sequences of proteins in these tests, tags left out. Where a name states a change or a piece, a line headed by the entry shows the natural chain unless it says otherwise. Chains listed by the source or under a name are the forms on record and can include a tag or linker.
UniProt P00441: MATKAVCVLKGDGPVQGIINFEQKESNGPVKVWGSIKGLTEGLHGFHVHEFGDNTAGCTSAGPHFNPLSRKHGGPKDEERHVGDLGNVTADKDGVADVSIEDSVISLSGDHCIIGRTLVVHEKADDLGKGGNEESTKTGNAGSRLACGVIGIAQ
human SOD1 G93A expressed in transgenic mice (hSOD1^G93A) (P00441, form named): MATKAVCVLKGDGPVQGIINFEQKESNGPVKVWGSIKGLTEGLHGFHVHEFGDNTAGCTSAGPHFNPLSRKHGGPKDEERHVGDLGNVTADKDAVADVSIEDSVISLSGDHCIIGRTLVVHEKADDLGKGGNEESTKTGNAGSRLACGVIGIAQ
UniProt Q921F2: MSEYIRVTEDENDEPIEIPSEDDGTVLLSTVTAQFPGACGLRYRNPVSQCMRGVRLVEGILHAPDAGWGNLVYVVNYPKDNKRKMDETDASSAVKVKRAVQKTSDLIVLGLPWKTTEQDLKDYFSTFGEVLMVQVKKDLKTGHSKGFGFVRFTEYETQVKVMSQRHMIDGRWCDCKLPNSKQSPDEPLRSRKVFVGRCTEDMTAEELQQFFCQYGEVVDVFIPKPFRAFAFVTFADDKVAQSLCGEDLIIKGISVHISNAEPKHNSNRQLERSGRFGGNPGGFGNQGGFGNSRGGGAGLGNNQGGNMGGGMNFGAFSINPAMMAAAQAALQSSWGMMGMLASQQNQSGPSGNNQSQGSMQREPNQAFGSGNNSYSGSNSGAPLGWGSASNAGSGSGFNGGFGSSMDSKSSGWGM

No constants are given. Whether binding was seen depends on the method and setting. In cells and extracts the contact can be indirect. Some binding calls cover weakened binding; strength is not graded here.

Assay [1] concerns the target V5-tagged mutant human SOD1 (hSOD1 G93A) (human) (UniProt P00441). The experiment in a line: co-IP; lysates of NSC-34 cells transfected with V5-tagged WT or G93A SOD1; precipitated with V5 antibody at 4 °C for 6 h, protein A/G agarose beads; blot for V5 or TDP-43.
In assay [2] the target is human SOD1 G93A expressed in transgenic mice (hSOD1^G93A) (human) (UniProt P00441). The experiment in a line: co-IP; lumbar spinal cord of 120-day-old hSOD1 G93A and WT mice; precipitating antibody not told.

As to “TAR DNA-binding protein 43 (TDP-43) in NSC-34 cells (from UniProt Q921F2 1-414)”, the binding result in assay [1] is on record as “binds”.
Turning to “TAR DNA-binding protein 43 (TDP-43) in mouse spinal cord (from UniProt Q921F2 1-414)”, the binding result in assay [2] is “binds”.
